Results reported in PubChem BioAssay AID493014 (National Center for Advancing Translational Sciences (NCATS), 2011).
Where “and” joins values, the source holds several entries; their conditions need not be identical. Equal values may be shown once. Some of the results follow. Shown are side measurements of this screen, not its main read-out; they come without a call. The list favours compounds with an active or inconclusive main result. Words in brackets tell the shape of the fitted curve; partial curves, single points and poor fits give uncertain potencies.

Assay: qHTS Assay to Find Inhibitors of Chronic Active B-Cell Receptor Signaling
Settings: ABC-DLBCL IkBa-CBG/CBR reporter, luminescence ratio (green luciferase fused to IkBa over red control in TMD8 lymphoma cells), 4 h
Excerpt: NIH Molecular Libraries Probe Production Network [MLPCN] NIH Chemical Genomics Center [NCGC] MLPCN Grant: 1 R03 DA031086-01A1 PI Name: Dr. R. Eric Davis NCGC Assay Overview: Diffuse large B-cell lymphoma (DLBCL) is the most common category of non-Hodgkin lymphoma, with ~20,000 new cases per year in the United States. DLBCL should be regarded as a collection of different neoplasms. Microarray gene expression analysis has defined two principal types of DLBCL, named for their similarity to normal B cell stages or activation states: a germinal center B-cell (GCB) type, and an activated B-cell (ABC) type. In ABC-DLBCL, a constitutive high-level activity of the NF-kappaB family of transcription factors has been observed (1) and NF-kappaB target genes are more highly expressed in ABC primary tumors than in GCB tumors. Functional studies have shown a constitutive high-level activity of the IkappaB (inhibitor of kappa-B) kinase (IKK) complex. […] Further analysis of DLBCL primary tumors for NF-kappaB target gene expression imply that although CARD11 is required for constitutive IKK activity in all ABC-DLBCL lines, mutations in CARD11 may be the root cause of IKK activation only in lines or tumors with such mutations. In other words, CARD11 mutations may explain NF-kappaB activation in only 10% of ABC-DLBCL cases. […] This process has been termed 'chronic active BCR signaling' (CABS). The goal of this screen is to find small-molecule inhibitors of the CABS pathway found in ABC-DLBCL lines using a cell-based assay that measures IkappaBalpa stability, which has already been extensively validated in the OCI-Ly3 line (PubChem AID:445; REF: 4). […] The assay uses green (CBG68) and red (CBR) emitting beetle luciferases [Chroma-GloTM developed by Promega Corp.] where the green luciferase is fused to IkappaBalpha and the red luciferase is present in its native state. Both luciferase genes are stably present in the TMD8 human ABC DLBCL cell line, but their expression is under the control of tetracycline-inducible promoters. Following the addition of doxycycline to induce expression of the luciferases, the green luminescence in control cultures rises only slowly because the CBG fusion partner IkappaBalpha is targeted by IKK activity for rapid degradation. In contrast, green luminescence rises rapidly in the presence of proteasome inhibitors or IKK inhibitors. The rise in red luminescence of CBR is not affected by proteasome or IKK inhibitors, and serves as normalization for cell number and nonspecific effects. Compounds were screened as a concentration-titration series that ranged from 46 uM to 3 nM.
NCGC Assay Protocol Summary: Cells were seeded in 1536-well plates at 5000 cells/4uL in IMDM medium containing 0.5% FBS, w/o phenol red, 1% penicillin/streptomycin. Then, 23 nL of compounds or DMSO were delivered to each well using a pin tool. One uL 20ng/ml doxycycline was then dispensed into white solid 1536-well plates and the plates were incubated at 37C/5% C02 in a cell incubator for 4 hrs. Then 4 uL luminescent substrate mix (in-house prepared: 150 mM Tris-Cl, pH 7.6, 3 mM MgCl2, 1% Triton X-100, 5 mM DTT, 0.2 mM CoA, 0.15 mM ATP, 5 mM D-luciferin, final concentrations) was added to each well. The plate was incubated at r.t. for 10-15 min. The plates were measured on a ViewLux plate reader for green luminescence (540/20 nm filter) and red luminescence (618/8 nm filter). The green and red luminescent signals were corrected for red and green luminescence filter overlap using previously determined filter calibration constants (determined using the procedure outlined in the Promega Technical Manual; REF 4). The %Activity was determined from the ratio of corrected green/red luminescent values. MG132 were used as control. […] Red luminescent %Activity was normalized to the difference between red luminesence in basal cells (0%Activity) and zero luminescence (-100% Activity). […]

[1] = measured here: CBR red luminescence, cell number
[2] = measured here: IkBa-CBG green luminescence

| Structure (SMILES) | AC50 [1] | AC50 [2] |
| --- | --- | --- |
| O=C1COc2ccc(C(=O)COC(=O)Cc3ccccc3)cc2N1 | 6.51 µM [rising, full curve, poor fit] |  |
| Cc1cc2c(C(C)C)c(O)c(O)c(C=O)c2c(O)c1-c1c(C)cc2c(C(C)C)c(O)c(O)c(C=O)c2c1O | 29.1 µM [falling, single point] and 5.17 µM [falling, single point] | 15.8 µM [rising, partial curve, poor fit] and 29.1 µM [rising, single point] |
| Brc1ccc2c(c1)C(OC1CN3CCC1CC3)c1ccccc1CS2 (stereo not given) | 29.1 µM [falling, single point] |  |
| Cc1cc(Cl)ccc1OC(C)C(=O)O (stereo not given) | 22.4 µM [rising, single point] |  |
| CCOc1ccc(CCn2c(-c3ccco3)nc3ccccc3c2=O)cc1OCC | 2.82 µM [falling, full curve] |  |
| CCCCCCn1c(O)c(C=Nc2ccccc2N2CCOCC2)c(=O)[nH]c1=S | 0.355 µM [rising, full curve, poor fit] |  |
| CCCCOc1ccc(CC2C(=O)N(C)C(=O)N(C)C2=O)cc1 | 7.94 µM [falling, partial curve, poor fit] |  |
| COC(=O)[C@]1(C)C[C@H]1[C@H](NP(=O)(c1ccccc1)c1ccccc1)c1ccccc1 | 29.1 µM [falling, single point] |  |
| O=C(/C=C/c1ccccc1)C1C(=O)c2ccccc2C1=O | 1.46 µM [falling, full curve] |  |
| CCCn1c(C(=O)c2ccc(OC)cc2)nc2ccccc21 | 17.8 µM [rising, single point] |  |
| CCN1CCN(Cc2cc(C(C)(C)C)c(O)c(C(C)(C)C)c2)CC1 | 11.6 µM [falling, partial curve, poor fit] |  |
| NC(=O)c1ccsc1NC(=O)COC(=O)Cc1ccccc1 | 0.366 µM [falling, partial curve, poor fit] |  |
| CC(C)c1ccc(N2C(=O)NC(=O)/C(=C/C=C/c3ccco3)C2=O)cc1 |  | 25.9 µM [falling, single point] |
| COc1ccc(C(C)=O)cc1CC(C(=O)c1ccccc1)N(C)C (stereo not given) | 29.1 µM [rising, single point] |  |
| O=C(c1ccc(Cl)cc1)c1cc([N+](=O)[O-])ccc1N1CCOCC1 | 8.91 µM [rising, partial curve] |  |
| CCCCCCCCn1sccc1=O | 25.9 µM [falling, single point] | 6.51 µM [falling, single point] |
| CCOC(=O)C1=C(N)OC2=C(C(=O)CCC2)[C@]12C(=O)N(CC(N)=O)c1ccccc12 | 1 µM [rising, full curve, poor fit] |  |
| C=C1C(O)[C@@H]2O[C@]3(CC[C@H](/C=C/C(C)[C@@H]4CC(C)=CC5(O[C@H](C[C@@](C)(O)C(=O)O)CCC5O)O4)O3)CC[C@H]2O[C@@H]1C(O)CC(C)[C@H]1OC2(CCCCO2)CCC1C (stereo not given in full) | 0.58 µM [falling, full curve, poor fit] |  |
| O=P(Oc1ccccc1)(Oc1ccccc1)N1CCN(c2ccc(F)cc2)CC1 | 35.5 µM [falling, single point] |  |

| Structure (SMILES) | AC50 [1] | AC50 [2] |
| --- | --- | --- |
| COC(=O)C1=C(N)Oc2c(c(=O)oc3ccccc23)[C@]12C(=O)N(C)c1ccccc12 | 0.316 µM [falling, full curve, poor fit] |  |
| COC(=O)C1=C(c2ccc(Cl)c(C(F)(F)F)c2)C[C@@H]2CC[C@H]1N2C(=O)NCCOc1ccc(OC)cc1 | 16.4 µM [falling, single point] |  |
| C#CCOc1cc(C2C3=C(COC3=O)Nc3cc4c(cc32)OCO4)ccc1OC (stereo not given) | 3.16 µM [rising, partial curve, poor fit] | 3.98 µM [falling, full curve] |
| Fc1cccc(F)c1CN1CCN(c2ccc(Cl)cc2)CC1 | 14.1 µM [rising, partial curve, poor fit] |  |
| CCCCCc1cc(=O)oc2c(C(CCN(CC)CC)c3cc(OC)c(OC)c(OC)c3)c(OC)cc(OC)c12 (stereo not given) | 12.6 µM [falling, single point] |  |
| COc1ccc(-c2nn(CCC#N)cc2C(=O)Nc2ccccc2Cl)cc1 | 0.398 µM [rising, full curve, poor fit] |  |
| CCCNC(=O)c1c(N)n(CC2CCCO2)c2nc3ccccc3nc12 (stereo not given) | 3.16 µM [falling, partial curve] |  |
| COc1ccc(NC(=O)CN2C(=O)C(C)N=C(c3ccccc3F)c3cc(Cl)ccc32)c(OC)c1 (stereo not given) | 35.5 µM [falling, single point] |  |
| Cc1cc(C)c(NC(=O)CCCn2c(=O)oc3ccccc32)c(C)c1 | 4.61 µM [rising, partial curve, poor fit] |  |
| c1ccc(CNc2ncnc3nc[nH]c23)cc1 | 0.92 µM [falling, full curve, poor fit] |  |
| CNC(=O)OCCc1nccn1C | 1.3 µM [rising, full curve] |  |
| O=C(O)[C@@H]1C[C@H]1[C@@H](NP(=O)(c1ccccc1)c1ccccc1)c1ccccc1 | 0.103 µM [rising, full curve, poor fit] |  |
| Cc1ccc(O)c(CN2CCN(c3ccccc3)CC2)c1 | 35.5 µM [rising, single point] |  |
| COC(=O)c1cnn(-c2cc(Oc3ccccc3)ncn2)c1N | 6.31 µM [rising, full curve, poor fit] |  |
| FC(F)(F)c1ccc2c(c1)N(CCCN1CCN(CCCl)CC1)c1ccccc1S2 | 0.731 µM [rising, partial curve, poor fit] |  |
| COC(=O)C1=C(c2ccc(-c3ccccc3)c(F)c2)C[C@@H]2CC[C@H]1N2C(=O)NC1Cc2ccccc2C1 | 2.91 µM [falling, partial curve] |  |
| O=C(Nc1ccc(Cl)cc1)O/N=C(\c1ccccc1)c1ccccn1 | 1.26 µM [rising, full curve, poor fit] |  |
| CCCNC(=O)N1C2CCC1CC(O)(c1cccnc1)C2 (stereo not given) | 0.0058 µM [falling, full curve, poor fit] |  |

Reprinted at random: 2 entries already listed

| Structure (SMILES) | AC50 [1] | AC50 [2] |
| --- | --- | --- |
| O=C(Nc1ccc(Cl)cc1)O/N=C(\c1ccccc1)c1ccccn1 | 1.26 µM [rising, full curve, poor fit] |  |
| CCCNC(=O)c1c(N)n(CC2CCCO2)c2nc3ccccc3nc12 (stereo not given) | 3.16 µM [falling, partial curve] |  |
